# Assay results as given in patent publication US20230263729A1, “POLY(ETHYLENE GLYCOL)-BLOCK-POLY(PROPYLENE SULFIDE) NANOCARRIER PLATFORM FOR ENHANCED EFFICACY OF IMMUNOSUPPRESSIVE AGENTS” (Northwestern University, priority 2019, published 2023).
# For some of these results: At least one structure is not confirmed: it was looked up by name or label, or the drawing left a doubt. Some of these results come from one statement about several compounds together.
# Experiments:
# [1] = Rapamycin biodistribution (LC-MS/MS); type: in vivo, mice; conditions: all timepoints (0.5 h to 48 h)
# [2] = system: allogenic islet transplantation; assay: In vivo allogenic islet transplantation, low-dose rapamycin (Example 1); design: species or system C57BL/6 mice
# allogeneic islet graft = assay: Intraportal fully-MHC mismatched allogeneic islet transplantation; type: in vivo, C57BL/6J mice; conditions: low dosage: 6 doses every 3 days, 1 mg rapamycin per kg
# Experimental: Allogeneic Islet Transplantation—Diabetes was induced via streptozotocin (IP; 190 mg/kg) injection five days prior to transplantation and confirmed via hyperglycemia (blood glucose>400 mg/dl). Starting the day prior to transplantation, mice were injected with PBS, PS, rapamycin, or rPS (N=3 per group) at 1 mg/kg (or equivalent) in accordance with a standard dosage (11 doses, given daily) or a low dosage (6 doses, given every 3rd day). On the day of transplantation, islets were isolated from Balb/c mice via common bile duct cannulation and pancreas distension with collagenase. Islets isolated from two donors (˜200 mouse islets, ˜175 IEQ) were transplanted to C57B6/J recipients via the portal vein. Body weight and blood glucose concentration were monitored closely for 100 days post-transplantation. Intraperitoneal glucose tolerance test (IPGTT) was performed one-month post transplantation. The animals were fasted for 16 hours before being injected intraperitoneally with 2 g dextrose (200 g/L; Gibco) per kg body weight. Blood glucose concentrations were measured at 0, 15, 30, 60- and 120-minutes post-injection.
smiles,measurement,setting,value
CO[C@H]1C[C@@H]2CC[C@@H](C)[C@@](O)(O2)C(=O)C(=O)N2CCCC[C@H]2C(=O)O[C@H]([C@H](C)C[C@@H]2CC[C@@H](O)[C@H](OC)C2)CC(=O)[C@H](C)/C=C(\C)[C@@H](O)[C@@H](OC)C(=O)[C@H](C)C[C@H](C)/C=C/C=C/C=C/1C [rapamycin],"Rapamycin concentration in the lungs, brain, heart, and fat",[1],below 1 ng/mg
same,islet function after glucose challenge (IPGTT),"[2]; low dose, 1 month post-transplantation",fail to restore normalglycemia
same,recipients that rejected the islet transplantation prior to day 20,"[2]; low-dose: 1 mg per kg s.c. every 3 days, 6 injections",3 of 4
same,mice remaining normoglycemic 100 days post-transplantation,allogeneic islet graft,a third
